In PubChem BioAssay (NCATS) one finds AC50 data, which are given here for 7 molecules.

Some of the results follow. Shown are side measurements of this screen, not its main read-out; they come without a call. Compounds called inactive in the main read-out are mostly missing here. Words in brackets tell the shape of the fitted curve; partial curves, single points and poor fits give uncertain potencies.

This experiment is described as follows: S16 Schwann cell PMP22 intronic element beta-lactamase assay (AID 624044). Conditions: S16 rat Schwann cells, PMP22 element beta-lactamase FRET, 24 h. Put shortly:
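Rat S16 Schwann cells with beta-Lac driven by a PMP22 intronic element, compound-treated 24 h at 37 °C. LiveBLAzer FRET B/G read: 460 nm normalized to potassium clavulanate vs DMSO; 535 nm FRET as viability; concentration-effect curves classified.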

The mark [1] stands for this setting: measured here: 460 nm blue channel.
The mark [2] stands for this setting: measured here: 530 nm viability channel.

A word on the AC50: it is the concentration at which the activity in the assay is half-maximal. Regarding `Nc1ncn(C2C[C@H](O)[C@@H](CO)O2)c(=O)n1` (some centres undefined), the AC50 was 22.4 µM [falling, single point] under setting [1] and 31.6 µM [falling, single point] under setting [2].
For `C=C(CC[C@@H](C)[C@H]1CCC2[C@]1(C)CC[C@]13C[C@@]14CCC(OC(=O)/C=C/c1ccc(O)c(OC)c1)C(C)(C)[C@@H]4CC[C@@]23C)C(C)C` (some centres undefined), the AC50 under setting [1] was 5.62 µM [falling, full curve, poor fit] and the AC50 under setting [2] was 2 µM [falling, full curve].
For `Cc1cc(CC(C)CC(C)(C)C)n(O)c(=O)c1` (centres undefined), the AC50 reads like this: under setting [1], 4.46 µM [falling, full curve]; under setting [2], 3.16 µM [rising, full curve, poor fit].
Turning to `CC(CSC(=O)c1ccccc1)C(=O)N1C[C@@H](Sc2ccccc2)C[C@H]1C(=O)O` (some centres undefined), the AC50 was 12.6 µM [falling, full curve] under setting [1] and 1.78 µM [falling, full curve, poor fit] under setting [2].
With `CCN(CC)CCNC(=O)c1cc(S(C)(=O)=O)ccc1OC`, the AC50 is, setting by setting: under setting [1], 9.51 µM [falling, single point]; under setting [2], 0.501 µM [falling, full curve].
As to `NC(=O)[C@H]1O[C@@H](O)[C@H](O)[C@@H](O)[C@@H]1O`, the AC50 reads like this: under setting [1], 14.1 µM [falling, single point]; under setting [2], 0.562 µM [falling, full curve].
In the case of `C[C@H]1[C@H](NC(=O)/C(=N/OC(C)(C)C(=O)O)c2csc(N)n2)C(=O)N1S(=O)(=O)O` (stereo in doubt), the AC50 runs as follows: under setting [1], 1.2 µM [falling, full curve, poor fit]; under setting [2], 1.26 µM [falling, partial curve].
